Patent US20140323420A1, “REDUCING TRANSMISSION OF SEXUALLY TRANSMITTED INFECTIONS” (University of Rochester, priority 2011, published 2014)
Some entries share one result that the patent states for a list of compounds.

The molecules below were run on HIV-1IIIB (assay: SEVI-mediated enhancement of HIV-1IIIB infectivity of TZM-bl cells, luciferase). Conditions: no SEVI fibrils.
Assay type: cell-based

SMILES | Effect on HIV infection in the absence of SEVI
CCNC(=O)CCOCCOCCOCCOCCNC(=O)CCNc1ccc(-c2nc3ccc(C)cc3s2)cc1 [Compound 1, BTA Monomer] | did not have any significant effect on HIV infection
Cc1ccc2nc(-c3ccc(NCCC(=O)NCCOCCOCCOCCOCCC(=O)NCCN(CCNC(=O)CCOCCOCCOCCOCCNC(=O)CCNc4ccc(-c5nc6ccc(C)cc6s5)cc4)CCNC(=O)CCOCCOCCOCCOCCNC(=O)CCNc4ccc(-c5nc6ccc(C)cc6s5)cc4)cc3)sc2c1 [Compound 3, BTA Trimer] | did not have any significant effect on HIV infection
CCNC(=O)C(CCCCNC(=O)CCOCCOCCOCCOCCNC(=O)CCNc1ccc(-c2nc3ccc(C)cc3s2)cc1)NC(=O)C(CCCCNC(=O)CCOCCOCCOCCOCCNC(=O)CCNc1ccc(-c2nc3ccc(C)cc3s2)cc1)NC(=O)C(CCCCNC(=O)CCOCCOCCOCCOCCNC(=O)CCNc1ccc(-c2nc3ccc(C)cc3s2)cc1)NC(=O)CCOCCOCCOCCOCCNC(=O)CCNc1ccc(-c2nc3ccc(C)cc3s2)cc1 (stereo not drawn) [Compound 4, BTA Tetramer] | did not have any significant effect on HIV infection
